The source of these data is patent US20260201389A1.

Chains of the proteins cited; added tags and fusions are not shown. Lines headed by an entry give the natural chain unless they say otherwise; changes in a name come on top. Residues count along the entry.
UniProt O35253: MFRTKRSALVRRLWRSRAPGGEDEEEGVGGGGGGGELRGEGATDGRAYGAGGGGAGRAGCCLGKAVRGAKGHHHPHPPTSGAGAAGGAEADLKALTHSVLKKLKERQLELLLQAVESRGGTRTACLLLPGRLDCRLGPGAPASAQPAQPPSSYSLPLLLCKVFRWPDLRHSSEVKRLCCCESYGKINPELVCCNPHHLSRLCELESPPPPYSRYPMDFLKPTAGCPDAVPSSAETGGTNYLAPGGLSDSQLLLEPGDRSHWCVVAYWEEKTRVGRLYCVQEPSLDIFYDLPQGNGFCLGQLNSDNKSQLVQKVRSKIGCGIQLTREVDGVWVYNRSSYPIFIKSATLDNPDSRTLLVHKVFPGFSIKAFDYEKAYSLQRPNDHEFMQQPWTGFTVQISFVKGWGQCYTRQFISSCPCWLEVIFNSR
UniProt Q62432, residues 2-467: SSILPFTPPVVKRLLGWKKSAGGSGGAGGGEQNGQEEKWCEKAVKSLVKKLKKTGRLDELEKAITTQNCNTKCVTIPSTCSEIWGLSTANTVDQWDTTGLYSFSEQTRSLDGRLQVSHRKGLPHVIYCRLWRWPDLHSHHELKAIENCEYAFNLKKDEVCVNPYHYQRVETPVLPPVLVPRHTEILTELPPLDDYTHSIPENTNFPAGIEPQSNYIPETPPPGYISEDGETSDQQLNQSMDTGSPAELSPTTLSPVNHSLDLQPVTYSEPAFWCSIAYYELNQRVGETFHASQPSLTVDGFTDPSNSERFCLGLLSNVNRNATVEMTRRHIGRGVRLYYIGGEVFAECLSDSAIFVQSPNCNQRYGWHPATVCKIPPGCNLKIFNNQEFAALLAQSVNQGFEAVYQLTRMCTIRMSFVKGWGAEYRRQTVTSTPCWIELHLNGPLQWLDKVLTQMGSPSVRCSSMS
UniProt O00308: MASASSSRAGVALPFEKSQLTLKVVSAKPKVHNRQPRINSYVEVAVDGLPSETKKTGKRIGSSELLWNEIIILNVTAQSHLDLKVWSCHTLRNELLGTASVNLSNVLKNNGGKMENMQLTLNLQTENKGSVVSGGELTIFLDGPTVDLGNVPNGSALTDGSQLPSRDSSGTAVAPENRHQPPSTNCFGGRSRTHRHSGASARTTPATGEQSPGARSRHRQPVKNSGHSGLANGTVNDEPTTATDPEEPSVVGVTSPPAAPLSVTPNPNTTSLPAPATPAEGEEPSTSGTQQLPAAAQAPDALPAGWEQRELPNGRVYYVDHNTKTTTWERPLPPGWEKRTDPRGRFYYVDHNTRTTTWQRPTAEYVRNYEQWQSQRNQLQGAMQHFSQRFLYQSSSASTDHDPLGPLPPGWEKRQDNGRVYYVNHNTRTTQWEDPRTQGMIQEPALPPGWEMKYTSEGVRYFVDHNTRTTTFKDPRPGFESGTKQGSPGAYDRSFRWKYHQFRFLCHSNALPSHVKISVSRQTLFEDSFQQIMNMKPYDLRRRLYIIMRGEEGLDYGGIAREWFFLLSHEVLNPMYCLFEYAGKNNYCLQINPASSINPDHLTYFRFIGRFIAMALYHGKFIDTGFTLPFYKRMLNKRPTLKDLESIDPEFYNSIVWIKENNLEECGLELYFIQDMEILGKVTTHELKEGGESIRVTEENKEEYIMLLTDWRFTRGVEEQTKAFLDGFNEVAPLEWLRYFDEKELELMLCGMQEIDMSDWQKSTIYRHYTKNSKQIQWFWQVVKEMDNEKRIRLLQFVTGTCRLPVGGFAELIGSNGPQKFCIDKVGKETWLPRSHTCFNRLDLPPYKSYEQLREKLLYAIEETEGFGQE
WWP2-N, endogenous in mouse WT primary cardiac fibroblasts (Q9DBH0, residues 1-335): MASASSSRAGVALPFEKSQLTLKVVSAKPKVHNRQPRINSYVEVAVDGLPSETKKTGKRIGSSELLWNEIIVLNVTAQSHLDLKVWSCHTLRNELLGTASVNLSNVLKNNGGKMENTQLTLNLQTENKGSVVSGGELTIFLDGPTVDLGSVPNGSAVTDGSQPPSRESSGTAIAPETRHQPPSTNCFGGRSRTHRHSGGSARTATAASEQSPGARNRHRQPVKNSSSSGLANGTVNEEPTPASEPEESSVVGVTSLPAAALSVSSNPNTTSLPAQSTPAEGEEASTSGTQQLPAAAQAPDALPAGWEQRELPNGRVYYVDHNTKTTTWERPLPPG
WWP2-C, endogenous in mouse WT primary cardiac fibroblasts (Q9DBH0, residues 440-870): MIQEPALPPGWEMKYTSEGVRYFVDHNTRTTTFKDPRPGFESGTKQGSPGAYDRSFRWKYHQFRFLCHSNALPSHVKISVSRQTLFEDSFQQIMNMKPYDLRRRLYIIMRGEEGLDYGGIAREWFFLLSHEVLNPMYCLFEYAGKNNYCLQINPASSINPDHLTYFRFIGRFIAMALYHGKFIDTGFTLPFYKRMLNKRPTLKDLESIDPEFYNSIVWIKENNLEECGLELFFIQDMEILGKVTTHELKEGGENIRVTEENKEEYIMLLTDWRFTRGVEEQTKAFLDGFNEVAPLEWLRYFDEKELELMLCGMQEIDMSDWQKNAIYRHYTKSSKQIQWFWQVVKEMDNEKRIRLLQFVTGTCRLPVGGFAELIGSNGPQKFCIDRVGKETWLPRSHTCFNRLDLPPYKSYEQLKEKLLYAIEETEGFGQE

Assay [1] concerns the target SMAD7 (mouse) (UniProt O35253). Briefly: co-immunoprecipitation with anti-FLAG antibody from NIH-3T3 lysates, western blot (FIG. 16C). For orientation: Immunoblotting shows a protein as a band on a membrane.
The target of assay [2] is SMAD2 protein (mouse) (UniProt Q62432). Described as above.
For assay [3] the target is unchanged. The assay can be described thus: co-immunoprecipitation in fibroblasts (summary sentence of Example 8).
For assay [4] the target is unchanged. The assay can be described thus: co-immunoprecipitation in mouse primary cardiac fibroblasts (summary sentence of Example 5).
The target of assay [5] is SMAD7 (mouse) (UniProt O35253). Briefly: co-immunoprecipitation with anti-SMAD7 antibody from TGFβ1-stimulated mouse primary cardiac fibroblasts, western blot (FIG. 16E).
Assay [6] concerns the target SMAD2 protein (mouse) (UniProt Q62432). Briefly: co-immunoprecipitation, western blot (summary of FIGS. 16C and 16D).
Assay [7] has the same target. The assay can be described thus: co-immunoprecipitation with anti-SMAD2 antibody from TGFβ1-stimulated mouse primary cardiac fibroblasts, western blot (FIG. 16D).

No constants are given. Whether binding was seen depends on the method and setting. Binding seen in cells or lysates may run through a third protein. Some binding calls cover weakened binding; strength is not graded here.

As to “FLAG-tagged WWP2-C (from UniProt O00308 440-870) (enzyme)”, in the assay with SMAD7 (mouse) [1], the binding entry was “binds”. Consider “FLAG-tagged WWP2-N (from UniProt O00308 1-335)”, for which the binding entry with SMAD2 protein (mouse) [2] is listed as “binds”.

As for “WWP2, endogenous in mouse primary cardiac fibroblasts (isoform not specified) (from UniProt Q9DBH0 1-870) (enzyme)”, the binding entry with SMAD2 protein (mouse) [3] and in the assay with SMAD2 protein (mouse) [4] was “binds” each time.

As to “WWP2-C, endogenous in mouse WT primary cardiac fibroblasts (from UniProt Q9DBH0 440-870) (enzyme)”, in the assay with SMAD7 (mouse) [5], the binding result is given as “binds”. As for “WWP2-FL, endogenous in mouse WT primary cardiac fibroblasts (from UniProt Q9DBH0 1-870) (enzyme)”, the binding entry with SMAD2 protein (mouse) [6], with SMAD2 protein (mouse) [7] and in the assay with SMAD7 (mouse) [5] was “binds” each time. With “WWP2-N, endogenous in mouse WT primary cardiac fibroblasts (from UniProt Q9DBH0 1-335)”, the binding result with SMAD2 protein (mouse) [6] and with SMAD2 protein (mouse) [7] was “binds” in each case.
